Test results from publication doi:10.1101/2025.09.05.674552.
Residue numbers refer to the chain shown, from its start. Results are given in words; binding and its absence hold for the method and conditions named. In cells and extracts the contact can be indirect. Some entries that bind do so weakly or less than the wild type. Sequences can lack the tags named with a protein.

Protein sequences, listed by entry. Tags and fused reporters are not part of them. Lines headed by an entry give the natural chain unless they say otherwise; changes in a name come on top.
UniProt Q5S007, whole entry: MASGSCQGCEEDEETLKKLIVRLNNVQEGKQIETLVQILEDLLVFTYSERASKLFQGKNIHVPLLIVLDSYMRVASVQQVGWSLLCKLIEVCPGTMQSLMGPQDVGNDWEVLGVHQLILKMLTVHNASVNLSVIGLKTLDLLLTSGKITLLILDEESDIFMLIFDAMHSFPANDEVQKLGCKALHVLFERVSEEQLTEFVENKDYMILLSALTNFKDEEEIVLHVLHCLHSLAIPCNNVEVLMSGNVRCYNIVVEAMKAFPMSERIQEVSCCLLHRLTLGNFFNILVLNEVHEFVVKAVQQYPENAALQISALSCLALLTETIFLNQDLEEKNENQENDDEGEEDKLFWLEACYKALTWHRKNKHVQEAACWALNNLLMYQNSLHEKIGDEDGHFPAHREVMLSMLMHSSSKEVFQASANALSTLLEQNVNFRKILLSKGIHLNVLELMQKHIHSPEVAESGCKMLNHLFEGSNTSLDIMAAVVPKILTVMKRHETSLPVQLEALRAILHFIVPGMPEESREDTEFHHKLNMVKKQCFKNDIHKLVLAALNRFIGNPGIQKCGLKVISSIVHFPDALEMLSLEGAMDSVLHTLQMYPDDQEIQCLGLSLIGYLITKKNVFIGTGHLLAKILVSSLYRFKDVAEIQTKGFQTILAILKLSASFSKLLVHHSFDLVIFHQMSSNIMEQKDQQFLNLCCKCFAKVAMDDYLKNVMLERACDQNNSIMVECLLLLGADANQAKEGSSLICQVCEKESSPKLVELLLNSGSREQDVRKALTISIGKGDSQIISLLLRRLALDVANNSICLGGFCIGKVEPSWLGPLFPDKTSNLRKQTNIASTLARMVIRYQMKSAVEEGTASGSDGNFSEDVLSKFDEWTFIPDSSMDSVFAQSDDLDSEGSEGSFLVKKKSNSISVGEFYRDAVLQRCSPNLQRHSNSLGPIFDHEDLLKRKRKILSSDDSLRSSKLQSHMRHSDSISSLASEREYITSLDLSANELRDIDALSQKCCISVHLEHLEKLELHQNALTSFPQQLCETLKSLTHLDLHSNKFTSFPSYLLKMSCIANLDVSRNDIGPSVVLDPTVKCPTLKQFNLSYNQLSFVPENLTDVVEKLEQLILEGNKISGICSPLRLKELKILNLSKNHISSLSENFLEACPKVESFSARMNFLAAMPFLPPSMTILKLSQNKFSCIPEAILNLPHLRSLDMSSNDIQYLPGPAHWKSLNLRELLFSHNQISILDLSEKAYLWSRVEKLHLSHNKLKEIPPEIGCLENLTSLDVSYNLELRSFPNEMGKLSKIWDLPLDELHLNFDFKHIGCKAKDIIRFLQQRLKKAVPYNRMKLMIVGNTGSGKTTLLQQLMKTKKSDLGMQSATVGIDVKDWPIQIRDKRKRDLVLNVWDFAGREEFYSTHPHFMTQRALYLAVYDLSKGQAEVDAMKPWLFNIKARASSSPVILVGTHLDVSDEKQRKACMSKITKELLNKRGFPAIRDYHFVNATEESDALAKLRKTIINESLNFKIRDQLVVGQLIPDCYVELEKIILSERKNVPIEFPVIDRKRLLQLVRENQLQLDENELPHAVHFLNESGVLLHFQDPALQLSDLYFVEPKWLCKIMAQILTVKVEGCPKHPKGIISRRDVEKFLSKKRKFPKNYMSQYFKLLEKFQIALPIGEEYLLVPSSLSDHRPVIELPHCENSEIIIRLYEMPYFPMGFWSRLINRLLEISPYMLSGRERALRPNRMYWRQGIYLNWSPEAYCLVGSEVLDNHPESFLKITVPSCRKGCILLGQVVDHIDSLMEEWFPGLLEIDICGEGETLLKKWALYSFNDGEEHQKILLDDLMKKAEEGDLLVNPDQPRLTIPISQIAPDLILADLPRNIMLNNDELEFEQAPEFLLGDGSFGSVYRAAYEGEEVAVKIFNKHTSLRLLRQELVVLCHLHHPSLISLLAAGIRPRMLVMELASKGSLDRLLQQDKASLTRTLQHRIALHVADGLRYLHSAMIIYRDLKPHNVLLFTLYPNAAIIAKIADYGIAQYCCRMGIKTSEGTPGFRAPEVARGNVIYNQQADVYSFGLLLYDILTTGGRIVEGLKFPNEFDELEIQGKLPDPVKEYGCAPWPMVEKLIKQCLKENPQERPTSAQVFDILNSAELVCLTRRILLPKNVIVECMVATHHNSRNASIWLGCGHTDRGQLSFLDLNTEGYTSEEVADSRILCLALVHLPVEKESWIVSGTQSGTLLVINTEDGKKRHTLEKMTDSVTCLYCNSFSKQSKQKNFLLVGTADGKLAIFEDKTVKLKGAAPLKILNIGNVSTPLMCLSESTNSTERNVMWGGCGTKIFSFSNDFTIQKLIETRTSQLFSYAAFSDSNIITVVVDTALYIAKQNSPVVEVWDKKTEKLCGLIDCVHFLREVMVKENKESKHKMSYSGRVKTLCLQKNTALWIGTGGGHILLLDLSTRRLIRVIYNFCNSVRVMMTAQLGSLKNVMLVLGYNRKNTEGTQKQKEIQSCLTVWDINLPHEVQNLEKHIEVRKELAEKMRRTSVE

Columns and labels:
Assay in all cases: co-IP
[1] = target: T1, HA-RAB32 Arg71 (human) (UniProt Q13637)
T1 sequence: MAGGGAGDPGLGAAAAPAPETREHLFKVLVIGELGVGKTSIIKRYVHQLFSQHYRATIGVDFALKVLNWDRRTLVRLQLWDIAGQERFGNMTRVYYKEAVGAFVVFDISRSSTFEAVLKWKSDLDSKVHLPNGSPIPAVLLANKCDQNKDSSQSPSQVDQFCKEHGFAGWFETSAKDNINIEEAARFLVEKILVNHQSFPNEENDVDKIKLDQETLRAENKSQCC

[2] = target: T2, HA-RAB32 Q85L (human) (UniProt Q13637)
T2 sequence: T1 sequence with R71S, Q85L

[3] = target: T3, HA-RAB32 Ser71 wild-type (human) (UniProt Q13637)
T3 sequence: T1 sequence with R71S

[4] = target: T4, HA-RAB32 T39N (human) (UniProt Q13637)
T4 sequence: T1 sequence with T39N, R71S

Measured: binding

Leucine-rich repeat kinase 2 (LRRK2) (from UniProt Q5S007 1-2527)
binds: all assays above
